Test results reported in patent US20230295346A1.
These are yes or no findings as the source states them, for the method shown. Some binding calls cover weakened binding; strength is not graded here.

Amino acid sequences for entries named in this document (tags omitted). Residues count along the entry.
UniProt P20334, residues 24-256: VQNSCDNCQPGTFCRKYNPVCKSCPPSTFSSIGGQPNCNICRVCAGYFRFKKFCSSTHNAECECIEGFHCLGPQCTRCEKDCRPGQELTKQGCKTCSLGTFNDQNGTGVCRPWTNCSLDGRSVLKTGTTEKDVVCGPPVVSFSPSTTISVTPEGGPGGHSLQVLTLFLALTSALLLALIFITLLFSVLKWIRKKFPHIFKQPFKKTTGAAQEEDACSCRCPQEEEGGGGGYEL

Biological target: CD137 on CD8^+ ConA activated splenocytes / OT-1 CD8 T cells (UniProt P20334)
Test: flow cytometry (mean fluorescence units) on CD8+ ConA activated splenocytes, Alexa 488 secondary

B1: CD137 Ab proper (chimeric anti-CD137 antibody, rat variable regions, mouse IgG1 heavy chain constant region) (antibody, V domains shown)
VH: QVQLKEAGPGLVQPTQTLSLTCTVSGFSLTSDGVHWIRQPPGKGLEWMGIIYYDGGTDYNSAIKSRLSISRDTSKSQVFLKINSLQTDDTAMYYCARIHFDYWGQGVMVTVSS
VL: EIVLTQSPTTIAASPGEKVTITCRASSSVSYMYWYQQKSGASPKLWIYDTSKLASGVPNRFSGSGSGTSYSLAINTMETEDAATYYCQQWSSTPLTFGSGTKLEIKR
binding: binds
